Assay results as given in article PMC7195445.
These are yes or no findings as the source states them, for the method shown. Binding seen in cells or lysates may run through a third protein. Some binding calls cover weakened binding; strength is not graded here.

Sequences of proteins named here, by UniProt entry; tags and fusion partners are left off.
UniProt P20700: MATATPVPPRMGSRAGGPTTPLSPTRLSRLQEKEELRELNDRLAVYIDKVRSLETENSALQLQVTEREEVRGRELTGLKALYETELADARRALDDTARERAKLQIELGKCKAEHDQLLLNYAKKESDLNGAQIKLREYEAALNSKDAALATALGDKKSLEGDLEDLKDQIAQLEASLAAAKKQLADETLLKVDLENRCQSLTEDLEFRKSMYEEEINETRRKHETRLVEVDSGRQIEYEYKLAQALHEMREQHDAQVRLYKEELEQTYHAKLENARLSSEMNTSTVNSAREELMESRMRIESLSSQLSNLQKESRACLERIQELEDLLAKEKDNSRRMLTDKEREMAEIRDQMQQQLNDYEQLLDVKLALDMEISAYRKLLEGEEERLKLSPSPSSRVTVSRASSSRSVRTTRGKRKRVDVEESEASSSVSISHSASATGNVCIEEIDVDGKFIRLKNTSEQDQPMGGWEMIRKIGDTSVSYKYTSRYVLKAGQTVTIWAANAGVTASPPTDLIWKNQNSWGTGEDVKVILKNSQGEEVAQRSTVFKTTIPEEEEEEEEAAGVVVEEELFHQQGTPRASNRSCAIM

Target: T1, Emerin (human (endogenous in hTERT RPE-1)) (UniProt P50402)
T1 sequence: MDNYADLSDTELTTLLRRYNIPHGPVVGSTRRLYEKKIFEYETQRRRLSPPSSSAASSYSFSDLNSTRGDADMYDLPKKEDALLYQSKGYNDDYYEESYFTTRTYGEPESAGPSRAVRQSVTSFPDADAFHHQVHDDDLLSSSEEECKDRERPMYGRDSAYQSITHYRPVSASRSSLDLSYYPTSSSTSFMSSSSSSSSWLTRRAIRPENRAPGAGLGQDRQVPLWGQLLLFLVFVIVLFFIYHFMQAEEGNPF
Test: proximity ligation; Duolink PLA kit; hTERT RPE-1 cells on micro-patterned lines, fixed with 4% PFA, permeabilized with 0.1% Triton-X; pairs of mouse anti-emerin with rabbit anti-Lamin B1 or rabbit anti-nesprin-1 antibodies

Row | binding | Substance
1 | binds | nesprin-1 (from UniProt Q8NF91 1-8797)
2 | binds | lamin B1 (from UniProt P20700 1-586)
